Laboratory results published in patent US12599584B2, “Indoline derivatives, compositions comprising them and uses thereof” (Yissum Research Development Company of The Hebrew …, priority 2016, dated 2026).
For at least one compound, name, drawing or mass did not settle the structure.

Columns and labels:
[1] = system: TNF-α release from LPS-activated RAW cells; experiment: Release of TNF-α from LPS-activated RAW 264.7 macrophages (ELISA); type: cell-based, mouse; conditions: LPS 2.5 μg/mL, supernatant after 8 h
Experimental: (§1) Anti-inflammatory activity was measured in RAW 264.7 macrophage cells. The cells were seeded at density of 5×10^4 per well in 48-well culture plates and grown overnight in DMEM as described above. The compounds were added to give final concentrations ranging from 1×10^−12-1×10^−6 M of the respective salts per well. The cells were incubated for 2 h at 37° C. prior to stimulation with lipopolysaccharide (LPS, 2.5 μg/mL) from Escherichia coli (Sigma-Aldrich). Supernatants were harvested after 8 h for detection of TNF-α and after 24 h for nitric oxide (NO). NO production was detected by a colourimetric method using Griess reagent (0.2% naphthylenediamine dihydrochloride, and 2% sulfanilamide in 5% phosphoric acid), which measures the concentration of nitrite, a stable metabolite produced from NO. TNF-α protein was detected by means of the sandwich ELISA method using an ELISA kit (Biolegend, San Diego, CA, USA) according to the manufacturer's instructions.

[2] = system: NO release from LPS-activated RAW cells; experiment: Release of NO from LPS-activated RAW 264.7 macrophages (Griess); type: cell-based, mouse; conditions: LPS 2.5 μg/mL, supernatant after 24 h; reduction ranging up to 50% at 1 nM
Experimental: as §1

## CCCC1O[C@@H]2C[C@H]3[C@@H]4CCC5=CC(=O)C=C[C@]5(C)[C@H]4[C@@H](O)C[C@]3(C)[C@]2(C(=O)CO)O1 (some centres unmarked) [Budesonide, budesonide, reference compound]
[1]
  Concentration range over which release of TNF-α is significantly reduced: 1 × 10^−10M-1 × 10^−6M
[2]
  Concentration range over which release of NO is significantly reduced (at least 25%): 1 × 10^−10M-1 × 10^−6M
